In article PMC3757082:
No constants are given. Whether binding was seen depends on the method and setting. For some assays here: In cells and extracts the contact can be indirect. Some results given as binding are weak or reduced against the parent protein; the word gives no strength. For some assays here: Sequences can lack the tags named with a protein. Blank lines part the entries; values can stand above or below the binder they belong to.

Legend:
[1] = target: T1, HA-RITF1 (Arabidopsis thaliana) (UniProt Q9C8Z9); test: co-IP; FLAG-RSA1 and HA-RITF1 co-expressed in tobacco (Nicotiana benthamiana) leaves; extract (50 mM Tris-HCl pH 8.0, 150 mM NaCl, 2 mM EDTA, 1% Triton X-100) precipitated with anti-HA and protein A agarose, blot with anti-FLAG or anti-HA
T1 sequence: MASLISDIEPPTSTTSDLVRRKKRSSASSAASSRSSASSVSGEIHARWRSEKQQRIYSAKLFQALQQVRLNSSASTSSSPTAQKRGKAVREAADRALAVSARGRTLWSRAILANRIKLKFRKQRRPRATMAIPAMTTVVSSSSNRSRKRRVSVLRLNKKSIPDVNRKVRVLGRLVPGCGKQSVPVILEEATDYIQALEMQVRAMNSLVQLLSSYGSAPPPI

[2] = target: T2, RSA1, bait RSA1-pDEST32 (Arabidopsis thaliana) (UniProt F4IS91); test: two-hybrid; RSA1-pDEST32 (bait) and RITF1-pDEST22 (prey), ProQuest Two-Hybrid System, yeast strain AH109, x-gal assay and growth on SD-L-W-H+3-AT
T2 sequence: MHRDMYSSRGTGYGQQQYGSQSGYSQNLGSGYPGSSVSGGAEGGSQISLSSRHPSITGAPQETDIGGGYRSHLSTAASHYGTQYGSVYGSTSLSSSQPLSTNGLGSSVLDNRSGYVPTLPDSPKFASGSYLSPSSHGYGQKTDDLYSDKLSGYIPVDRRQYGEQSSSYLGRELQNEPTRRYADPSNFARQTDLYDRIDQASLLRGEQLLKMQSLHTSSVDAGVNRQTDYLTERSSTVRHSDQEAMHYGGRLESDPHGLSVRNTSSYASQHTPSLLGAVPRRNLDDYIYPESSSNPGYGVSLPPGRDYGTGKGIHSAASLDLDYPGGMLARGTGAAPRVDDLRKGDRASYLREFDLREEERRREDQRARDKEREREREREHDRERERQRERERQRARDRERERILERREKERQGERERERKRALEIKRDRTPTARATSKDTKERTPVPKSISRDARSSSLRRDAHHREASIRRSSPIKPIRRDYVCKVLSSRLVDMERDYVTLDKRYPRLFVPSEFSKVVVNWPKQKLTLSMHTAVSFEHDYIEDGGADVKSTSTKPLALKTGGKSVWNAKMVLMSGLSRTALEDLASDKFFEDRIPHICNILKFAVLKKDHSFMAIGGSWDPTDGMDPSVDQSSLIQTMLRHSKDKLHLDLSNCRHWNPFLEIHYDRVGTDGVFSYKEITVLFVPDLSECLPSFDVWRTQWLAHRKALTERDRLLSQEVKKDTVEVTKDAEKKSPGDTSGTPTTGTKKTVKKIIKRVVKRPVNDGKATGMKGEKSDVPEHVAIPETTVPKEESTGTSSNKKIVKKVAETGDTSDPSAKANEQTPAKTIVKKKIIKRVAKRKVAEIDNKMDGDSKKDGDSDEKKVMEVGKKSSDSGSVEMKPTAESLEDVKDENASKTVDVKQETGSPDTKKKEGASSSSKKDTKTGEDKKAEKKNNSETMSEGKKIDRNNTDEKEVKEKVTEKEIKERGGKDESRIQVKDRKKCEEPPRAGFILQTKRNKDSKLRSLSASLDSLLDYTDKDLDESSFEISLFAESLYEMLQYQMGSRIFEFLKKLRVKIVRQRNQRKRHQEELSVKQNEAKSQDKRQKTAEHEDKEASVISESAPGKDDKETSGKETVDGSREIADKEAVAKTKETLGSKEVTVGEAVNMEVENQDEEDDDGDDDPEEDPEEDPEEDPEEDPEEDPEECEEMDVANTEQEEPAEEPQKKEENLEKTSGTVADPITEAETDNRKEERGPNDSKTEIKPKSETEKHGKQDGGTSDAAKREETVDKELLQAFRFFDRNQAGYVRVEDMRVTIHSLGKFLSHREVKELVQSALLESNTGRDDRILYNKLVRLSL

[3] = target: T3, RSA1-nLUC (Arabidopsis thaliana) (UniProt F4IS91); test: split reporter; Split-LUC: RSA1-nLUC and RITF1-cLUC co-infiltrated with 35S:p19 into tobacco leaves, 3 d, CCD camera
T3 sequence: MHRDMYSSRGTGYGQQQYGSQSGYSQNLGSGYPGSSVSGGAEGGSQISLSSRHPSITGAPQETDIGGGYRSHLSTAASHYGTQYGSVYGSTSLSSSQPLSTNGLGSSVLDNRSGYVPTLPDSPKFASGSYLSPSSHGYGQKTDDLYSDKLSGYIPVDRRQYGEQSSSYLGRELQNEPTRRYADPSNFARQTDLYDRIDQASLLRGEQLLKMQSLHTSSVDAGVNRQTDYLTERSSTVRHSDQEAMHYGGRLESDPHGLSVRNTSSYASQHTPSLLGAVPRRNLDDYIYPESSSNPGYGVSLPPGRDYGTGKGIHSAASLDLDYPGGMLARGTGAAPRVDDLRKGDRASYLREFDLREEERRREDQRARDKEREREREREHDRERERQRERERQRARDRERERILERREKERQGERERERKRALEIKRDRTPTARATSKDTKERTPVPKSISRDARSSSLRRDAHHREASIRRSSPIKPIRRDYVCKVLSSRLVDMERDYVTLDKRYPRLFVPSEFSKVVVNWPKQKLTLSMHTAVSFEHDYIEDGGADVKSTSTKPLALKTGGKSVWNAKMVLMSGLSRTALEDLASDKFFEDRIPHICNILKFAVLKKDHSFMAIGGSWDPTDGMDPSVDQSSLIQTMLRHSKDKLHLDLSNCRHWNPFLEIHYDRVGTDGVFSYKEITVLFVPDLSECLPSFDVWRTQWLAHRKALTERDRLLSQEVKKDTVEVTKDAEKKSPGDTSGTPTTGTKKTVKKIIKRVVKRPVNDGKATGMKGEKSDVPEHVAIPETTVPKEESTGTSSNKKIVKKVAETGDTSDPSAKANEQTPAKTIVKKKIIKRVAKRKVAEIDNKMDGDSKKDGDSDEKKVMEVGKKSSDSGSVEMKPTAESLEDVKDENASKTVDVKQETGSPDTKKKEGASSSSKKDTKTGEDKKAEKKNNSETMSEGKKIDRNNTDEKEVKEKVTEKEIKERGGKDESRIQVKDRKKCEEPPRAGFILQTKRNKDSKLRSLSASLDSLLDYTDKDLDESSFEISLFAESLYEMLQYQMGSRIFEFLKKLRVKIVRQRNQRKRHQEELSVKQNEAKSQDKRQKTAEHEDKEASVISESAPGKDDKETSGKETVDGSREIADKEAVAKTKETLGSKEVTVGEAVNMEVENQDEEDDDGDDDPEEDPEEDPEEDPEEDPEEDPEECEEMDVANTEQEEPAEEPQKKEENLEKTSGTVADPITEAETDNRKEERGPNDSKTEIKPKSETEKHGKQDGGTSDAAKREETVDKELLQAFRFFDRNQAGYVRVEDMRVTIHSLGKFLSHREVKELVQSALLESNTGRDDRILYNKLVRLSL

[4] = target: T4, RSA1-nYFP (Arabidopsis thaliana) (UniProt F4IS91); test: split reporter; BiFC: RSA1-nYFP and RITF1-cYFP co-transfected into Arabidopsis leaf protoplasts, confocal microscopy
T4 sequence: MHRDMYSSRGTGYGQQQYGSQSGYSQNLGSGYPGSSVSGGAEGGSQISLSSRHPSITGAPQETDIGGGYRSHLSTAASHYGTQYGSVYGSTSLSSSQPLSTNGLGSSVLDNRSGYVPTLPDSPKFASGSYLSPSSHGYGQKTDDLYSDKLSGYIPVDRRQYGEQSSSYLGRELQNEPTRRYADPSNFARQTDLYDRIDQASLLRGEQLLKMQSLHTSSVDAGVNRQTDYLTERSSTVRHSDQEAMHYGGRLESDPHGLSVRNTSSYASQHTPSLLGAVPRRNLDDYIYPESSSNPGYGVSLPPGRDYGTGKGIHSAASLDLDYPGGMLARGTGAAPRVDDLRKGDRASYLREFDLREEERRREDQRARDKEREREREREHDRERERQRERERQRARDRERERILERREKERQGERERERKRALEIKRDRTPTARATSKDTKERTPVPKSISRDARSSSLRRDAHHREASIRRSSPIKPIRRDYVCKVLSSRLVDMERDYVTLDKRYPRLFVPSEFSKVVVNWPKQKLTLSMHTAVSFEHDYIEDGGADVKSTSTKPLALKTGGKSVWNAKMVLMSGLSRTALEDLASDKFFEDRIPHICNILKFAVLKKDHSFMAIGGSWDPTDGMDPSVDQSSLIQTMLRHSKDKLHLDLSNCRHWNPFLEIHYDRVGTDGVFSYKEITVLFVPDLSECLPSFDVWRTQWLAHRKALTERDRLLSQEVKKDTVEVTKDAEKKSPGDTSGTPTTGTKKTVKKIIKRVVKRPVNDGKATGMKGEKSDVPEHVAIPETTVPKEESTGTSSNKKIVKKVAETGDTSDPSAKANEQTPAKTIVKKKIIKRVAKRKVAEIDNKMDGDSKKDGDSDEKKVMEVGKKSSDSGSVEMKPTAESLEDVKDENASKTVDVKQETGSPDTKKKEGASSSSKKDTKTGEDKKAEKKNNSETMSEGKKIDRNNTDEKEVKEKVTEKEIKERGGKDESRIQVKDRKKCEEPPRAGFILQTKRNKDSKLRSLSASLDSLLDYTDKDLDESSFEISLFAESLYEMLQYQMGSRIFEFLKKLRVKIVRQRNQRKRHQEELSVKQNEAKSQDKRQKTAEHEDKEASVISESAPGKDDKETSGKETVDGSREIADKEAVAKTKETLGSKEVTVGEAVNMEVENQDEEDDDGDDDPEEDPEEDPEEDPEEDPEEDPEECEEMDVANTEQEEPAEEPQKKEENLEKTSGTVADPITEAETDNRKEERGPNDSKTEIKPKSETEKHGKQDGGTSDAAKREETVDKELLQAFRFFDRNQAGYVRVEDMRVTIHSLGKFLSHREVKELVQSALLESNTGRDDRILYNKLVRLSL

[5] = target: T4, RSA1-nYFP (Arabidopsis thaliana); test: split reporter; BiFC: RSA1-nYFP and RITF1-cYFP co-infiltrated with 35S:p19 into tobacco (Nicotiana benthamiana) leaves, 3 d, confocal microscopy of epidermal cells

- binding [1]: binds
B1: FLAG-RSA1 (protein, UniProt F4IS91-1 1-1340)
chain: MHRDMYSSRGTGYGQQQYGSQSGYSQNLGSGYPGSSVSGGAEGGSQISLSSRHPSITGAPQETDIGGGYRSHLSTAASHYGTQYGSVYGSTSLSSSQPLSTNGLGSSVLDNRSGYVPTLPDSPKFASGSYLSPSSHGYGQKTDDLYSDKLSGYIPVDRRQYGEQSSSYLGRELQNEPTRRYADPSNFARQTDLYDRIDQASLLRGEQLLKMQSLHTSSVDAGVNRQTDYLTERSSTVRHSDQEAMHYGGRLESDPHGLSVRNTSSYASQHTPSLLGAVPRRNLDDYIYPESSSNPGYGVSLPPGRDYGTGKGIHSAASLDLDYPGGMLARGTGAAPRVDDLRKGDRASYLREFDLREEERRREDQRARDKEREREREREHDRERERQRERERQRARDRERERILERREKERQGERERERKRALEIKRDRTPTARATSKDTKERTPVPKSISRDARSSSLRRDAHHREASIRRSSPIKPIRRDYVCKVLSSRLVDMERDYVTLDKRYPRLFVPSEFSKVVVNWPKQKLTLSMHTAVSFEHDYIEDGGADVKSTSTKPLALKTGGKSVWNAKMVLMSGLSRTALEDLASDKFFEDRIPHICNILKFAVLKKDHSFMAIGGSWDPTDGMDPSVDQSSLIQTMLRHSKDKLHLDLSNCRHWNPFLEIHYDRVGTDGVFSYKEITVLFVPDLSECLPSFDVWRTQWLAHRKALTERDRLLSQEVKKDTVEVTKDAEKKSPGDTSGTPTTGTKKTVKKIIKRVVKRPVNDGKATGMKGEKSDVPEHVAIPETTVPKEESTGTSSNKKIVKKVAETGDTSDPSAKANEQTPAKTIVKKKIIKRVAKRKVAEIDNKMDGDSKKDGDSDEKKVMEVGKKSSDSGSVEMKPTAESLEDVKDENASKTVDVKQETGSPDTKKKEGASSSSKKDTKTGEDKKAEKKNNSETMSEGKKIDRNNTDEKEVKEKVTEKEIKERGGKDESRIQVKDRKKCEEPPRAGFILQTKRNKDSKLRSLSASLDSLLDYTDKDLDESSFEISLFAESLYEMLQYQMGSRIFEFLKKLRVKIVRQRNQRKRHQEELSVKQNEAKSQDKRQKTAEHEDKEASVISESAPGKDDKETSGKETVDGSREIADKEAVAKTKETLGSKEVTVGEAVNMEVENQDEEDDDGDDDPEEDPEEDPEEDPEEDPEEDPEECEEMDVANTEQEEPAEEPQKKEENLEKTSGTVADPITEAETDNRKEERGPNDSKTEIKPKSETEKHGKQDGGTSDAAKREETVDKELLQAFRFFDRNQAGYVRVEDMRVTIHSLGKFLSHREVKELVQSALLESNTGRDDRILYNKLVRLSL

- binding [2]: binds
B2: RITF1, prey RITF1-pDEST22 (protein, UniProt Q9C8Z9 1-221)
chain: MASLISDIEPPTSTTSDLVRRKKRSSASSAASSRSSASSVSGEIHARWRSEKQQRIYSAKLFQALQQVRLNSSASTSSSPTAQKRGKAVREAADRALAVSARGRTLWSRAILANRIKLKFRKQRRPRATMAIPAMTTVVSSSSNRSRKRRVSVLRLNKKSIPDVNRKVRVLGRLVPGCGKQSVPVILEEATDYIQALEMQVRAMNSLVQLLSSYGSAPPPI

- binding [3]: binds
B3: RITF1-cLUC (protein, UniProt Q9C8Z9 1-221)
chain: MASLISDIEPPTSTTSDLVRRKKRSSASSAASSRSSASSVSGEIHARWRSEKQQRIYSAKLFQALQQVRLNSSASTSSSPTAQKRGKAVREAADRALAVSARGRTLWSRAILANRIKLKFRKQRRPRATMAIPAMTTVVSSSSNRSRKRRVSVLRLNKKSIPDVNRKVRVLGRLVPGCGKQSVPVILEEATDYIQALEMQVRAMNSLVQLLSSYGSAPPPI

- binding [4]: binds
- binding [5]: binds
B4: RITF1-cYFP (protein, UniProt Q9C8Z9 1-221)
chain: MASLISDIEPPTSTTSDLVRRKKRSSASSAASSRSSASSVSGEIHARWRSEKQQRIYSAKLFQALQQVRLNSSASTSSSPTAQKRGKAVREAADRALAVSARGRTLWSRAILANRIKLKFRKQRRPRATMAIPAMTTVVSSSSNRSRKRRVSVLRLNKKSIPDVNRKVRVLGRLVPGCGKQSVPVILEEATDYIQALEMQVRAMNSLVQLLSSYGSAPPPI
